The results in this text go back to paper PMC7884786 (Translational Psychiatry, 2021).

Protein sequences, listed by entry. Tags and fused reporters are not part of them.
UniProt P22909: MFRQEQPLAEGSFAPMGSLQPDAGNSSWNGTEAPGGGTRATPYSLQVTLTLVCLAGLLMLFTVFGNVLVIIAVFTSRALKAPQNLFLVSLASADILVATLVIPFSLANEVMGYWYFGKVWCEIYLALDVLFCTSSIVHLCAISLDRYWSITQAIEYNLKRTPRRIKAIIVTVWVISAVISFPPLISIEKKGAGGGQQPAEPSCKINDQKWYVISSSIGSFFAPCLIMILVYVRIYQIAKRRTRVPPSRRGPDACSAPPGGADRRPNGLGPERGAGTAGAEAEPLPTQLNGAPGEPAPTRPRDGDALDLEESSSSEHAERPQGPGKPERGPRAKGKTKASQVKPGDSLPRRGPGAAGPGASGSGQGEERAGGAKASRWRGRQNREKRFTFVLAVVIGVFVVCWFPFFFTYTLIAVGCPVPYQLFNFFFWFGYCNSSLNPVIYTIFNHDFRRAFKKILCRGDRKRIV
UniProt P32121: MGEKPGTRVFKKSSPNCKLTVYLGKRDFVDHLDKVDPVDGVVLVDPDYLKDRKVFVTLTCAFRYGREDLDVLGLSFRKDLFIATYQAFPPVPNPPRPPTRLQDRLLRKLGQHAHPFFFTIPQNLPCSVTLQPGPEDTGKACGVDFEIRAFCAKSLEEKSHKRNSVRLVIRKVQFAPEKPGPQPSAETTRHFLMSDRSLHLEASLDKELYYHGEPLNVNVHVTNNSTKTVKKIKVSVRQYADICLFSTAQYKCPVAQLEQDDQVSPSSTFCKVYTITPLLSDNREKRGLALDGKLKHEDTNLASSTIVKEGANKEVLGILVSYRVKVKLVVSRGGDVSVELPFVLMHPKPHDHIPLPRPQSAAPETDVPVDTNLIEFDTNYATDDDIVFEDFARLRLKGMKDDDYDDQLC
UniProt P63096: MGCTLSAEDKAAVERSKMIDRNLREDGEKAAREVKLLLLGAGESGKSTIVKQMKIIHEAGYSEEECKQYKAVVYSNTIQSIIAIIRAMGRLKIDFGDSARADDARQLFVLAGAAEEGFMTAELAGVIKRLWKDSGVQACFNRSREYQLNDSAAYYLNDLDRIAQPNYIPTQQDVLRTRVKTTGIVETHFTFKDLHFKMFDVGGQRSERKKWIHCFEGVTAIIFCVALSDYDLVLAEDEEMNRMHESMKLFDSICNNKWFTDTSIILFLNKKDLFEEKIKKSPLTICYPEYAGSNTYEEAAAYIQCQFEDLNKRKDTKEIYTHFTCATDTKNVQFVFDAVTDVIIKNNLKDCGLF

In this test the target is rat α2A-adrenergic receptor fused to HaloTag at the C-terminus (α2A-AR-HaloTag) (rat) (UniProt P22909). In words: FRET or BRET; nanoBRET in living HEK-293T cells co-transfected with HaloTag-receptor (618 ligand, acceptor) and NanoLuc-Gαi1(91) or NanoLuc-β-arrestin2 (donor); concentration-response to NE or DA, read 5 min after drug addition; 5 μM furimazine; signal corrected by NanoLuc-only cells.

These are yes or no findings as the source states them, for the method shown. Binding seen in cells or lysates may run through a third protein. Some entries that bind do so weakly or less than the wild type.

With “human β-arrestin2 fused with NanoLuc at the N terminus (NanoLuc-β-arrestin2) (from UniProt P32121 1-409)”, the binding result is listed as “binds”.
The result for “human Gαi1 with nanoluciferase (NanoLuc) inserted at position 91 (NanoLuc-Gαi1(91)) (from UniProt P63096 1-354)” reads “binds”.
